Data taken from PubChem BioAssay AID1159506, deposited by NCATS (2015).

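Luminescence from an EWS-FLI1 target-promoter (NR0B1) reporter, set against a CMV-promoter reporter, two days after silencing single genes in TC32 Ewing sarcoma cells.
Each siRNA was applied at 20 nM.
A z-score of the log NR0B1-over-CMV signal, less the median of siRNAs with the same seed; more negative means a stronger specific loss of the NR0B1 reporter.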

This is part of the screen; most of the strongest results are not listed here.
Sequences are the guide (antisense) strand, without overhang.

siRNA: CACGAUCCGUUGUACACUC
target gene: CICP26
seed-corrected z-score: -0.164

siRNA: UGUAGAACAAGGAUAUGUC
target gene: XRCC6
seed-corrected z-score: 0.7789

siRNA: UAGCUGUUUUUGUAGCUGC
target gene: MED4
seed-corrected z-score: 0.1986

siRNA: AAAGUUCUGCGUGAUGGUC
target gene: METTL21B
seed-corrected z-score: -0.5082

siRNA: UAACAGAACGGCCUGGAUG
target gene: HIST2H2AC
seed-corrected z-score: 1.158

siRNA: UUGGCAAAGCGCAUGUUCC
target gene: RPL29
seed-corrected z-score: 0.2906

siRNA: UCAAUUAAUGGACCGCACC
target gene: TARSL2
seed-corrected z-score: 0.05372

siRNA: UUUGUCUCCAUUAGGAUUU
target gene: ARPC2
seed-corrected z-score: 0.443

siRNA: GAAAAGAUAUGCUCUUGGC
target gene: LCE1C
seed-corrected z-score: 0.1607

siRNA: UACCCUUAAUAAUCGAUUC
target gene: ISPD
seed-corrected z-score: 0.2728

siRNA: UUAUCUACAGAGUGGUUGC
target gene: OR4K17
seed-corrected z-score: -0.02109

siRNA: AAAUUGUUAGCCGUAUUUC
target gene: FAM188B
seed-corrected z-score: -0.5405

siRNA: UCACUUGACAGGUUGGUUC
target gene: SELL
seed-corrected z-score: 0.1479

siRNA: UAUACUCCAAAACCUCUUC
target gene: FBXO42
seed-corrected z-score: 0.6268

siRNA: AUUGUUUGCAUCGAUUUUG
target gene: BBOX1
seed-corrected z-score: 0.5095

siRNA: UUCUAUGCAAAAUAUCUCC
target gene: INTS10
seed-corrected z-score: 0.8797

siRNA: UUUCAGCCCUGGUUUGACG
target gene: ANKRD49
seed-corrected z-score: 0.3835

siRNA: UACUCUUUCACUCUGCGAG
target gene: UBLCP1
seed-corrected z-score: -0.4195

siRNA: AGUAUAAUACAUUAUGUCC
target gene: DDHD1
seed-corrected z-score: 1.226

siRNA: UUGACGAACAGACUCCUGG
target gene: KIAA0753
seed-corrected z-score: -0.3045

siRNA: UUCAUCAACAUCGCAUUUG
target gene: KIAA0226L
seed-corrected z-score: -0.7866

siRNA: AGCGGAUUGAAGGUGAUGG
target gene: PEMT
seed-corrected z-score: -1.082

siRNA: AACCUUCUCCCAUUUUACU
target gene: MBLAC1
seed-corrected z-score: 0.9613

siRNA: UCUGCUACCUUUAACUUGG
target gene: RIMBP3
seed-corrected z-score: 0.4209

siRNA: UUUCUUAUAGGGCUCAAUG
target gene: BNIPL
seed-corrected z-score: -0.3659

siRNA: UUUUCACCGAAAAAUGACU
target gene: LOC729532
seed-corrected z-score: 0.1014

siRNA: UAUCAGGAAACCAUCCUCG
target gene: LOC730183
seed-corrected z-score: -0.08885

siRNA: AAAGUAGACGACUCCUUGG
target gene: B3GAT3
seed-corrected z-score: -0.05991

siRNA: UCCAGUGCCUCAGUGUCGU
target gene: IL17REL
seed-corrected z-score: -1.502

siRNA: UAUUGGAACAGUACGAGCU
target gene: MMP19
seed-corrected z-score: 0.462

siRNA: UUUCUUCUCACGGGAGAAC
target gene: ADRA1D
seed-corrected z-score: 0.1305

siRNA: UGGUGCAUCAAAACGACCU
target gene: SDHAF4
seed-corrected z-score: -0.8334

siRNA: AGAAUAUCUCCAGUCGUGG
target gene: CFAP52
seed-corrected z-score: -0.07231

siRNA: UGGAUUUUACGUGUCAUUC
target gene: MT1H
seed-corrected z-score: 0.4195

siRNA: AACAUAUCAAACACUCUCC
target gene: EIF4A2
seed-corrected z-score: -0.1196

siRNA: UUCGCCUUCAGAAUCAGUG
target gene: RPS6KA1
seed-corrected z-score: 0.1278

siRNA: UCAGGGUUGAAGGAUGGGU
target gene: PACSIN2
seed-corrected z-score: 0.5142

siRNA: UACGAAAUUUAGGAGAUUC
target gene: C12orf42
seed-corrected z-score: 0.131

siRNA: UAGUUGACAGCGAAGAUAG
target gene: INTS4
seed-corrected z-score: -0.653

siRNA: UCUGUGCAAGCUCUUGAGC
target gene: SLC25A42
seed-corrected z-score: 0.5381

siRNA: UUGGGAUUUACCCACAUCC
target gene: FOXR1
seed-corrected z-score: 0.2035

siRNA: UUCUUCUUCUGUUCGAUCG
target gene: ICMT
seed-corrected z-score: -0.0612

siRNA: UUAGUUCAACUUUCCCGCG
target gene: BCL2L12
seed-corrected z-score: -0.2195

siRNA: ACUGGUAUUAGCUUUUUGU
target gene: SMAD6
seed-corrected z-score: -0.0002475

siRNA: UUCUAAUCAAAUCAUAAAC
target gene: FAM96A
seed-corrected z-score: 1.268

Repeated from the top, 3 entries:

| siRNA | target gene | seed-corrected z-score |
|---|---|---|
| `CACGAUCCGUUGUACACUC` | CICP26 | -0.164 |
| `UGUAGAACAAGGAUAUGUC` | XRCC6 | 0.7789 |
| `UAGCUGUUUUUGUAGCUGC` | MED4 | 0.1986 |